Library screen at single concentrations

By UniProt entry, the sequences of proteins in these tests, tags left out. Residues count along the entry.
UniProt P9WFT3, whole entry: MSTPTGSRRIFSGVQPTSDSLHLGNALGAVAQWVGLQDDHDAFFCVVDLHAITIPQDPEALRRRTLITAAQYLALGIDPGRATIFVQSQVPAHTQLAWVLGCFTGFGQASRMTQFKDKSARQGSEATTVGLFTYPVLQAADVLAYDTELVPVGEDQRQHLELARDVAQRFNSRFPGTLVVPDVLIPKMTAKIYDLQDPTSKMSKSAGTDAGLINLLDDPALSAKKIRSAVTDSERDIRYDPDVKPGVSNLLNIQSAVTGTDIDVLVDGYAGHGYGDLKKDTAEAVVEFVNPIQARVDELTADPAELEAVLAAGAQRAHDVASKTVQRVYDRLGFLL
UniProt Q4DA54, 1-478: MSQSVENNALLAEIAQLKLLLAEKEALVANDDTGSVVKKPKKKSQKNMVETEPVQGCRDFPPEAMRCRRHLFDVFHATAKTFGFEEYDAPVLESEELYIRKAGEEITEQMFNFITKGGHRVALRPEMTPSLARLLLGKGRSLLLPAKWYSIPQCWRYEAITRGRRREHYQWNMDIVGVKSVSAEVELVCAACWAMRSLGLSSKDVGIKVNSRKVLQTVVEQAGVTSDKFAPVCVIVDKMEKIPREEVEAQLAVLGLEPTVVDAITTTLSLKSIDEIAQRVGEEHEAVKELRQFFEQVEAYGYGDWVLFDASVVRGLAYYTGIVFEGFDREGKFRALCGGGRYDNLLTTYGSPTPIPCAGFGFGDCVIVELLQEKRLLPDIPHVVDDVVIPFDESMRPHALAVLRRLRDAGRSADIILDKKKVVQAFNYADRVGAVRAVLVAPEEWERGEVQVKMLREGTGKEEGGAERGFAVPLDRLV

Measurements from “University of Dundee, Small-Polar-MMV Screening Library” (2021), ChEMBL document CHEMBL3988442.

MtTrpRS: 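Enzyme assay of tryptophanyl-tRNA synthetase; the read-out is not stated. Target: Tryptophan-tRNA ligase, Mycobacterium tuberculosis (UniProt P9WFT3). Tested at 10 µM. Direction is not recorded; retested compounds ran higher, which suggests that high means inhibition. Of about 65,000 compounds tested this way, about 64 (0.098%) reached 50% or more in at least one test.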
Leishmania in macrophages: 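Cell assay of Leishmania donovani living inside macrophages; the read-out is not stated. Compounds at 30 µM. The record gives no direction; compounds that gave an IC50 in retests scored well above the rest, so higher reads as stronger inhibition. About 69,000 compounds were tested under these conditions; 1.5% (about 1,000) showed 50% or more at least once.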
TcHisRS: 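Histidine-tRNA ligase, Trypanosoma cruzi CL Brener (UniProt Q4DA54). Enzyme assay of histidyl-tRNA synthetase; the read-out is not stated. Compounds at 30 µM. Higher reads as stronger inhibition (inferred: compounds with an IC50 in retests scored well above the rest). About 69,000 compounds were tested under these conditions; 0.045% (about 31) showed 50% or more at least once.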

Values are the deposited “Percent Effect”, in %. The controls that fix the scale are not given in the record; negative values are as filed. This is an unselected part of the compounds tested. Two or more numbers in one place are separate tests of the same structure; such repeats can differ widely.

For CC[C@H]1N(C)CCC[C@]12CCC(=O)N2Cc1ccncc1.O=C(O)C(F)(F)F.O=C(O)C(F)(F)F the result was Leishmania in macrophages: 21.55%. With COC(=O)[C@H](C)NC(=O)c1nc(C2CC2)n(-c2ccccc2Cl)n1 the screen gave MtTrpRS: -7.72%; Leishmania in macrophages: 8.835%; TcHisRS: 5.208%. For Cc1cnn(CC2CCCN2CC(=O)N(C)Cc2ccco2)c1 (stereo not drawn) the result was MtTrpRS: -5.556%; Leishmania in macrophages: 13.29%; TcHisRS: 13.79%. Result for CCc1c(C)sc2ncnc(N3CC[C@@H](N4CCOCC4)[C@H](O)C3)c12 was MtTrpRS: 0.9288%; Leishmania in macrophages: 21.72%; TcHisRS: 7.792%. For Cc1cc2cc(C(=O)N[C@@H]3CC[C@@H](N4CCCC4)[C@@H]3O)ccc2o1 the result was Leishmania in macrophages: 10.19% and 15.01%; TcHisRS: 12.09%. For CCc1csc(CNCC(=O)Nc2ccc(Cl)c(C)c2)n1 the result was MtTrpRS: -4.47%; Leishmania in macrophages: 12.49%; TcHisRS: 5.028%. With O=C(O)C(F)(F)F.[H][C@@]12COC[C@]1(COc1ccccn1)CN(S(=O)(=O)N(C)C)C2 the screen gave Leishmania in macrophages: 22.58%. For O=C(Cc1ccccc1C(F)(F)F)N1CCC2(CC1)[C@H](O)C[C@@H]2O the result was MtTrpRS: 3.56%; Leishmania in macrophages: -2.706%; TcHisRS: -0.9901%.

Result for Cc1c(C2CCCN(C(=O)c3ccncc3)C2)n2c(nc1=O)CCC2.Cl (stereo not drawn) was Leishmania in macrophages: 4.908%. Result for O=C(NCC(c1ccc(F)cc1)N1CCOCC1)Nc1cn[nH]c1 (stereo not drawn) was MtTrpRS: 22.95%; Leishmania in macrophages: -16.34%; TcHisRS: 3.79%. For CN1CCCCC1CCC(=O)NCCSc1cnn[nH]1 (stereo not drawn) the result was MtTrpRS: -3.924%; Leishmania in macrophages: 18.62%; TcHisRS: 8.901%. Result for O=C(c1cccc(CNS(=O)(=O)c2ccc(F)cc2)c1)N1CCCC1 was MtTrpRS: -3.01%; Leishmania in macrophages: 11.85%; TcHisRS: 4.274%. For COc1ccc(F)cc1S(=O)(=O)N1CCC(Oc2ccc(Cl)cn2)CC1 the result was MtTrpRS: -1.444%; Leishmania in macrophages: 7.184% and 10.47%; TcHisRS: 2.062%. Cn1c(CN2CCCC2)nnc1C1CCCN(C(=O)CN2CCCC2)C1 (stereo not drawn) read MtTrpRS: -1.458%; Leishmania in macrophages: -1.885%; TcHisRS: 7.143%. c1cncc(CN2CCn3cc(Cn4cccn4)nc3C2)c1 gave MtTrpRS: -2.075%; Leishmania in macrophages: 4.337%; TcHisRS: 0%. For O=C1CC2(CCCC2)CN1CCOc1ccc(F)cc1 the result was MtTrpRS: 0.4078%; Leishmania in macrophages: 12.36%; TcHisRS: 7.216%.

Result for O=C(NC1CC1)[C@H]1C[C@H]2OCC[C@H]2N(Cc2ccco2)C1 was MtTrpRS: 2.138%; TcHisRS: 0.4975%. COCC(C)NC(=O)CCCn1cnc2ccccc2c1=O (stereo not drawn) read MtTrpRS: 0.06473%; Leishmania in macrophages: 16.57%; TcHisRS: 8.911%. Result for CN1CCN(c2nc(O)c3c(-c4ccccn4)ccnc3n2)CC1 was MtTrpRS: -1.377%; Leishmania in macrophages: -22.51%; TcHisRS: -1.087%. With CCNC(=O)N1CCC2(C1)c1ccccc1S(=O)(=O)N2CCC(C)C (stereo not drawn) the screen gave MtTrpRS: -2.204%; Leishmania in macrophages: 14.72%; TcHisRS: 1.622%. NC(=O)c1ccc(S(=O)(=O)NC2CCN(Cc3ccccc3)C2=O)cc1 (stereo not drawn) gave MtTrpRS: 0.07868%; Leishmania in macrophages: 33.07%; TcHisRS: 2.256%. For Cc1ncsc1CN1CCC2(CC1)CC(=O)N(Cc1ccc(Cl)cc1)C2 the result was MtTrpRS: 5.048%; Leishmania in macrophages: -3.959%; TcHisRS: 10.84%. Result for O=C(C1CC1)N1CCN(Cc2ccncc2)c2ncccc2C1 was MtTrpRS: 0.4433%; TcHisRS: 9.524%. CN1CCC(CCNC(=O)N2CCN(Cc3ccon3)CC2)CC1 gave MtTrpRS: -0.9413%; Leishmania in macrophages: 15.67%; TcHisRS: -25%.

With O=C(c1cocn1)N1CCC2(CC1)COC(COCc1ccccn1)C2 (stereo not drawn) the screen gave MtTrpRS: -2.804%; TcHisRS: 10.87%. With CC(=O)N[C@@H]1CN(c2nc(CO)cs2)C[C@H]1c1ccc(C)o1 the screen gave MtTrpRS: -1.459%; Leishmania in macrophages: -1.624%; TcHisRS: 10.98%. With Cc1cc(C)n(CC(C)NC(=O)C2(c3ccccc3F)CC2)n1 (stereo not drawn) the screen gave MtTrpRS: 3.946%; Leishmania in macrophages: 12.63%; TcHisRS: 1.786%. Result for [H][C@]12CCC[C@@]1(COC)CN(C(=O)COC1CCCC1)C2 was Leishmania in macrophages: 36.81%. For Cc1cc(C(F)(F)F)nn1CC(C)C(=O)NC(C)C (stereo not drawn) the result was MtTrpRS: 1.295%; Leishmania in macrophages: -60.28%; TcHisRS: -1.739%.

The first 2 entries again:

{"structure": "CC[C@H]1N(C)CCC[C@]12CCC(=O)N2Cc1ccncc1.O=C(O)C(F)(F)F.O=C(O)C(F)(F)F", "Leishmania in macrophages": 21.55}
{"structure": "COC(=O)[C@H](C)NC(=O)c1nc(C2CC2)n(-c2ccccc2Cl)n1", "MtTrpRS": -7.72, "Leishmania in macrophages": 8.835, "TcHisRS": 5.208}